PMC7819943, “Rice protein-binding microarrays: a tool to detect cis-acting elements near promoter regions in rice”
Some of the results follow.

Target: T1, OsSMF1 (Oryza sativa, UniProt Q6ZLB0 1-436)
T1 sequence: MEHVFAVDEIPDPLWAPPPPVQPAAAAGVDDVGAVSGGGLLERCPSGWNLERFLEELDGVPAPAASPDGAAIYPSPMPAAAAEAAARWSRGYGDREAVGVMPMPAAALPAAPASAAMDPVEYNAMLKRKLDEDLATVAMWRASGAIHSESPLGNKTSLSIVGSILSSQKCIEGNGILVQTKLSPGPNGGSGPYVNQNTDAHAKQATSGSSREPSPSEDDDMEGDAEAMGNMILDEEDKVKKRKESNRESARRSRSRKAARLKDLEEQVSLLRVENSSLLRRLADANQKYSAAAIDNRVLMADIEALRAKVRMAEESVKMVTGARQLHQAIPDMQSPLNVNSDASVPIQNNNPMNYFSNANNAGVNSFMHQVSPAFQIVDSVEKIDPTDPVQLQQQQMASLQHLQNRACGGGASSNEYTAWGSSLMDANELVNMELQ
Experiment: protein-binding microarray (RPBM); PBS, 2% BSA, 51.3 ng/ul salmon testes DNA, 50 uM zinc acetate, 200 nM TF, 25 C, 1 h; high values mean tight binding
Conditions: protein: recombinant; tags: N-terminal polyhistidine and DsRed monomer fusion (pET32a); chain copies: 2; label: CyDye5-dUTP incorporated in the synthesized complementary strand; 3' TTTTT single-stranded linker to array surface; dsDNA, one strand shown
Procedure, shortened: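 Binding signal is defined as the fluorescence intensity of each feature in arbitrary units, read on an Axon 4000B scanner. Transcription factors with N-terminal polyhistidine and DsRed fusions came from E. coli BL21-CodonPlus and were purified on Ni–NTA. They were incubated at 200 nM for 1 h at 25 °C on a custom Agilent array that had been made double-stranded with Cy5-dUTP, with 50 µM zinc acetate present, and the array was washed.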

Sequence	binding signal
ACACATGCTTCAAGTGGCTAAGAGGGCATCCTCCCTTTTACGGAGTCACCTAGTGCAG	16000 fluorescence intensity (a.u.)
TTTGCGAACGTAATTCCATTAATTAAACACACGTCTATATCGGAGTCACCTAGTGCAG	3220 fluorescence intensity (a.u.)
AGGAAATGAGTGATCTTGCAATGCTGGAAATACTGGATTTCGGAGTCACCTAGTGCAG	4990 fluorescence intensity (a.u.)
AACGACATATGTACTTTGTGTCTTTTGACTCTTTCAGGTTCGGAGTCACCTAGTGCAG	4770 fluorescence intensity (a.u.)
TACGCCATGTACACGTGCGCCACCTCCCTCTGCGCCTCCACGGAGTCACCTAGTGCAG	8020 fluorescence intensity (a.u.)
CATCGGACGTCGTCATCGGACGGGTCTTGACTCTTGACCCCGGAGTCACCTAGTGCAG	4640 fluorescence intensity (a.u.)
CCCGAGAGCGAACGGTCGTCTGCCACGTCATTTTCGCCGCCGGAGTCACCTAGTGCAG	28200 fluorescence intensity (a.u.)
GCCCTCTGGGAGGGCAGAGGACGGCGAAAATGACGTGGCACGGAGTCACCTAGTGCAG	33600 fluorescence intensity (a.u.)
CACGGACGTTACGTGGCACAGTACAGTTCTTTGTTTGACGCGGAGTCACCTAGTGCAG	6580 fluorescence intensity (a.u.)
TGTTGCTCTCTGATCCCTAGGGTTTACTTTCCCCTCCTCCCGGAGTCACCTAGTGCAG	5570 fluorescence intensity (a.u.)
CCAACTTTCCTCGTGGGCTCCACGTGGCAGTGGGGAAAGCCGGAGTCACCTAGTGCAG	21300 fluorescence intensity (a.u.)
CATCCCGTTACAGAGTCTTTCTTTGCAGACACGTACGCCACGGAGTCACCTAGTGCAG	5940 fluorescence intensity (a.u.)
GACTTTTGTGGGAGGCGCTGGTTTCTGCTCTACTCACAGCCGGAGTCACCTAGTGCAG	3940 fluorescence intensity (a.u.)
AAATGTTGATAAACTACGGCAATATTGAGTCATCAATAGCCGGAGTCACCTAGTGCAG	6260 fluorescence intensity (a.u.)
TTACTGCTACCTCCACTTCATGTTATAAGTTGTTTTACCTCGGAGTCACCTAGTGCAG	3480 fluorescence intensity (a.u.)
GTCTAAAACCTTATGCAGTCTGCCATCTGCTGAGTGTTCACGGAGTCACCTAGTGCAG	3490 fluorescence intensity (a.u.)
TACTTGCCATGTCCGGCCATGGCTGCCACCACTCGATCTCCGGAGTCACCTAGTGCAG	4070 fluorescence intensity (a.u.)
GCTACAGTAAATCCGACGTGGTTCGCCCCAGAAGCCGCCCCGGAGTCACCTAGTGCAG	4000 fluorescence intensity (a.u.)
GATGTCATGGGTGCGTTGCCAGATGTGTTCTCCGGTGGCCCGGAGTCACCTAGTGCAG	3690 fluorescence intensity (a.u.)
AGTTAGTTTTGATTAGGTGTCATTTAGTTTTAAATCCCCTCGGAGTCACCTAGTGCAG	5070 fluorescence intensity (a.u.)
GTTATTGAGGATGATTAAAACCGTTTGGTGCCCTGTCATACGGAGTCACCTAGTGCAG	4660 fluorescence intensity (a.u.)

Reprinted at random: 6 entries already listed
Sequence	binding signal
TACGCCATGTACACGTGCGCCACCTCCCTCTGCGCCTCCACGGAGTCACCTAGTGCAG	8020 fluorescence intensity (a.u.)
GTTATTGAGGATGATTAAAACCGTTTGGTGCCCTGTCATACGGAGTCACCTAGTGCAG	4660 fluorescence intensity (a.u.)
CACGGACGTTACGTGGCACAGTACAGTTCTTTGTTTGACGCGGAGTCACCTAGTGCAG	6580 fluorescence intensity (a.u.)
CCAACTTTCCTCGTGGGCTCCACGTGGCAGTGGGGAAAGCCGGAGTCACCTAGTGCAG	21300 fluorescence intensity (a.u.)
AGGAAATGAGTGATCTTGCAATGCTGGAAATACTGGATTTCGGAGTCACCTAGTGCAG	4990 fluorescence intensity (a.u.)
CCCGAGAGCGAACGGTCGTCTGCCACGTCATTTTCGCCGCCGGAGTCACCTAGTGCAG	28200 fluorescence intensity (a.u.)

(next part)

Sequence	binding signal
AGATTGACGTTCCGCAAGTTGCTGACGCCACGAACATCGTCGGAGTCACCTAGTGCAG	6580 fluorescence intensity (a.u.)
GAATCAAATCTCTACCGTCCATCCGTCATCTGATTTAATCCGGAGTCACCTAGTGCAG	3330 fluorescence intensity (a.u.)
GTTTGTCGTCATGGAGCATCGTCAGCACATCACGGCACCACGGAGTCACCTAGTGCAG	9400 fluorescence intensity (a.u.)
CGCAGTTTGACGTGTTTCCAAGTGATATGTTTTCAGTTCACGGAGTCACCTAGTGCAG	4550 fluorescence intensity (a.u.)
CGCCACCGCATCCAGTCACCTCACCACCACCGCAGCATCACGGAGTCACCTAGTGCAG	6880 fluorescence intensity (a.u.)
GGGTCTTGAAAGAGAAGAATCAAAGACGAACGTGGCATCCCGGAGTCACCTAGTGCAG	6080 fluorescence intensity (a.u.)
TCCTCTCCACTCCCACGTTATCACCTCGCCGCTGTGCTCCCGGAGTCACCTAGTGCAG	5330 fluorescence intensity (a.u.)
ATGTGATGCATGATGATTAGATATGCTTGCATGTTAATTTCGGAGTCACCTAGTGCAG	3160 fluorescence intensity (a.u.)
CATTTCCTGTGGCGTGGTGTTAGCAGAAGCCCTTGTCCACCGGAGTCACCTAGTGCAG	3340 fluorescence intensity (a.u.)
GACAGTCCGACTAACAGCCGTCACGACACTTACTGTTTTGCGGAGTCACCTAGTGCAG	8310 fluorescence intensity (a.u.)
GCTGCAACTAGCTGCCGTGTAGCTAAAGAAAATACAAGCCCGGAGTCACCTAGTGCAG	3230 fluorescence intensity (a.u.)
CAAATGACAGCTGTGTTTAGTTTCACACTAAAATTGAAAGCGGAGTCACCTAGTGCAG	4370 fluorescence intensity (a.u.)
TCGCCGGCATGGGCTCACGGACTCCCGTCACGTGGGCAACCGGAGTCACCTAGTGCAG	4680 fluorescence intensity (a.u.)
TTTGGGGCGCGGGTGGGTGGCTGGGTGCGCGTCGATCGTGCGGAGTCACCTAGTGCAG	5310 fluorescence intensity (a.u.)
CTCCCCTCAACCGTCCGTCCATCCCCTGTCAAGTTCGCCGCGGAGTCACCTAGTGCAG	3250 fluorescence intensity (a.u.)
AATAAGCTACTGACACGTTGCTGTATGCGGTATACTTTGTCGGAGTCACCTAGTGCAG	3660 fluorescence intensity (a.u.)
GTGAGCCCATGGGCCGTGGCCACTTGTGGGCTATGATATGCGGAGTCACCTAGTGCAG	18000 fluorescence intensity (a.u.)
AAGAAGAGTCTGAGACTCTGAGTTGGATGGATAGGGTCCCCGGAGTCACCTAGTGCAG	3560 fluorescence intensity (a.u.)
GCCAGGTGGGCTGGCGCTGAGTGTCCCACGGTCAGCGCCACGGAGTCACCTAGTGCAG	4010 fluorescence intensity (a.u.)
ATCATAGTACTACGAATCTAGACAAGAGGCATATCCAGATCGGAGTCACCTAGTGCAG	34600 fluorescence intensity (a.u.)
TCTAACAACCCTTTTGCTTCCTCTGAATGGCCTTGTCACCCGGAGTCACCTAGTGCAG	3600 fluorescence intensity (a.u.)

Sequence	binding signal
CTCTCCTCCAGCCACGTGGCGCCTAGCCCCGCCGCCTACGCGGAGTCACCTAGTGCAG	23400 fluorescence intensity (a.u.)
GAAGAAGATAGCACCGCATGGGTCTGTGCCTTACTTCTTGCGGAGTCACCTAGTGCAG	38900 fluorescence intensity (a.u.)
CGTCGTTCTATTTGGCGTTGAGGTGTCTAATTTCAGCGCCCGGAGTCACCTAGTGCAG	30500 fluorescence intensity (a.u.)
CTTACTCTGCAATATCATGTGGCCACGCAAGGACACAATTCGGAGTCACCTAGTGCAG	5460 fluorescence intensity (a.u.)
TCTCAGCATGGTCTACATCATCCAAGGTTTGTATGATGATCGGAGTCACCTAGTGCAG	3220 fluorescence intensity (a.u.)
TAATACAGATTATAACAATCTAGCTTATAGTAATCTGACTCGGAGTCACCTAGTGCAG	23100 fluorescence intensity (a.u.)
CCCTTTTCGTTCCCCACCATCCACGCGGCCGTCCATCCCTCGGAGTCACCTAGTGCAG	4000 fluorescence intensity (a.u.)
GTTGACGGGGTTTGTGAGGTGTGGCGGTGACTTGGAAAGACGGAGTCACCTAGTGCAG	3540 fluorescence intensity (a.u.)
ATATTTTATGATCTGATGAATCATTGGTGAAAAGTGAATGCGGAGTCACCTAGTGCAG	3250 fluorescence intensity (a.u.)
ATTCTTCACACATCTGCACTTTCAGCTTCCCCTATCGTGGCGGAGTCACCTAGTGCAG	3660 fluorescence intensity (a.u.)
TCCGGCGAGCCTCGCCGCCGGCGTCAGCAAGCTCATCCCCCGGAGTCACCTAGTGCAG	5990 fluorescence intensity (a.u.)
CCGGCCCATCGAAGGCTACACGTCTCCCCGCGGGCGTGTGCGGAGTCACCTAGTGCAG	3420 fluorescence intensity (a.u.)
CAATCCGCCCGTTCCGGCCACCCCACCGCCCCGGAATCCCCGGAGTCACCTAGTGCAG	3410 fluorescence intensity (a.u.)
GGTACCAGGTGGTACCAAGTACCATGAAGGAGTCACTACTCGGAGTCACCTAGTGCAG	3280 fluorescence intensity (a.u.)
GCGGCGGAGGGCGACGAGGCAGCGGCTGCATTGGCGGTGGCGGAGTCACCTAGTGCAG	3320 fluorescence intensity (a.u.)
CCAGCACCCCGGAGACCTGGCTCAGCGCCGACACCCTGTCCGGAGTCACCTAGTGCAG	25300 fluorescence intensity (a.u.)
CCATGAAGGAGCTTGTCCACATCATACTGCATCGGGGAGCCGGAGTCACCTAGTGCAG	9100 fluorescence intensity (a.u.)
CATAGATCTTTTGACTAGGTTTTCGTTCCACGTGGCATCACGGAGTCACCTAGTGCAG	12900 fluorescence intensity (a.u.)
AACCAGCCTACCAACCCGTCAAGTCATCGACACAGGGATCCGGAGTCACCTAGTGCAG	3320 fluorescence intensity (a.u.)
ATTTTCATGCTTAGATGTAGTAACTACACCAACATTACATCGGAGTCACCTAGTGCAG	3310 fluorescence intensity (a.u.)
CAAAATGAACCACAAACTGATTTGCTCCTCCCGAAGGTTCCGGAGTCACCTAGTGCAG	37600 fluorescence intensity (a.u.)

Sequence	binding signal
GCGGCGCGCGCGGTGGAGCGGTACCGCGTGACGAAGCTGTCGGAGTCACCTAGTGCAG	3620 fluorescence intensity (a.u.)
TCTGCCTTGAAGTGGTACCGTGGGTGGGAGGGTAGTTATGCGGAGTCACCTAGTGCAG	3480 fluorescence intensity (a.u.)
TCACCGCGCTGCAGACGCTGCTCGTCAGCAACAACCGGCTCGGAGTCACCTAGTGCAG	3820 fluorescence intensity (a.u.)
GTGATCTTGAAGAGTTGTGTGATTAGACGACGTGGATATACGGAGTCACCTAGTGCAG	21900 fluorescence intensity (a.u.)
TCATCCTGTCATCCCCATGAATGCGGATGTCACCACTCGTCGGAGTCACCTAGTGCAG	4140 fluorescence intensity (a.u.)
ATGTTGCCTCGCTGTCAAACTGACTGTAATCCAACTCCACCGGAGTCACCTAGTGCAG	4096 fluorescence intensity (a.u.)
ATGCAAGAGCTAGCGCAACCGTGGTGACGCAACCAAGAGACGGAGTCACCTAGTGCAG	3960 fluorescence intensity (a.u.)
TTACGTACTTGCACTATCTGTCATCCTGTATCTGGGACCGCGGAGTCACCTAGTGCAG	3700 fluorescence intensity (a.u.)
TTTCCTACCGACCAGACGATGACGGAGAGGGTGACGCAGGCGGAGTCACCTAGTGCAG	6220 fluorescence intensity (a.u.)
CGACACAGCCCCGACAGGCGAGACACGTAACCATCACGCCCGGAGTCACCTAGTGCAG	9260 fluorescence intensity (a.u.)
GCTTCCGGCCCTGTGTCACGCCGCGCCGTTCCTCGTCGTCCGGAGTCACCTAGTGCAG	3590 fluorescence intensity (a.u.)
AACAGGGAATCGAACCCATGATGTCGGGATGCTACGACATCGGAGTCACCTAGTGCAG	3380 fluorescence intensity (a.u.)
AGTCGAGAGTGACAGAGCACGTGTACACTTGGACATGGACCGGAGTCACCTAGTGCAG	3520 fluorescence intensity (a.u.)
CGTGGGTTTCTCCACACATATTGGTGGCATACGGCATACCCGGAGTCACCTAGTGCAG	3500 fluorescence intensity (a.u.)
CGGATTCTCGTCGGCTTCGGCGACCGGAAGAGGAGAGGAGCGGAGTCACCTAGTGCAG	3230 fluorescence intensity (a.u.)
CGTCAGGCTGCTCGCCGCCGGCGCTGACGTCGTTCTACGGCGGAGTCACCTAGTGCAG	5960 fluorescence intensity (a.u.)
TGTCAGTTTTAGCTGAATCATCATGTATGGTTAAAACTATCGGAGTCACCTAGTGCAG	4000 fluorescence intensity (a.u.)
TAATGATGTTACCACGCAATCTGCGCGAGCCACCATGCTACGGAGTCACCTAGTGCAG	3740 fluorescence intensity (a.u.)
CTGCAATGCATTATATGACAAGCTGCATGATGTGGAAGAACGGAGTCACCTAGTGCAG	3170 fluorescence intensity (a.u.)
CTCCCTCCGCCGCCCCGGTTACGCAACCAAATACCGACGGCGGAGTCACCTAGTGCAG	35600 fluorescence intensity (a.u.)
ACGGCGGTGAACACCACGAACAGCTCCGGGCCATCACGGTCGGAGTCACCTAGTGCAG	25900 fluorescence intensity (a.u.)
